Laboratory results: PubChem BioAssay AID588590 (National Center for Advancing Translational Sciences (NCATS), 2011)
The campaign covered roughly 390,000 compounds. About 4,000 (1%) were called active. Inconclusive results, whose numbers are uncertain, are shown with a selection of clear calls. Calls follow the shape of the dose curve; as a rule, active = well fitted inhibition curve with a large enough effect; inconclusive = small, poorly fitted or top-dose-only effect, or another doubt; inactive = no such curve, though single readings can be large or run the other way. A potency beside an inconclusive call is a rough fit, not a confirmed value.

Sequences of proteins named here, by UniProt entry; tags and fusion partners are left off. A change or cut given only in a name is not applied to a line headed by its entry.
UniProt Q9UNA4: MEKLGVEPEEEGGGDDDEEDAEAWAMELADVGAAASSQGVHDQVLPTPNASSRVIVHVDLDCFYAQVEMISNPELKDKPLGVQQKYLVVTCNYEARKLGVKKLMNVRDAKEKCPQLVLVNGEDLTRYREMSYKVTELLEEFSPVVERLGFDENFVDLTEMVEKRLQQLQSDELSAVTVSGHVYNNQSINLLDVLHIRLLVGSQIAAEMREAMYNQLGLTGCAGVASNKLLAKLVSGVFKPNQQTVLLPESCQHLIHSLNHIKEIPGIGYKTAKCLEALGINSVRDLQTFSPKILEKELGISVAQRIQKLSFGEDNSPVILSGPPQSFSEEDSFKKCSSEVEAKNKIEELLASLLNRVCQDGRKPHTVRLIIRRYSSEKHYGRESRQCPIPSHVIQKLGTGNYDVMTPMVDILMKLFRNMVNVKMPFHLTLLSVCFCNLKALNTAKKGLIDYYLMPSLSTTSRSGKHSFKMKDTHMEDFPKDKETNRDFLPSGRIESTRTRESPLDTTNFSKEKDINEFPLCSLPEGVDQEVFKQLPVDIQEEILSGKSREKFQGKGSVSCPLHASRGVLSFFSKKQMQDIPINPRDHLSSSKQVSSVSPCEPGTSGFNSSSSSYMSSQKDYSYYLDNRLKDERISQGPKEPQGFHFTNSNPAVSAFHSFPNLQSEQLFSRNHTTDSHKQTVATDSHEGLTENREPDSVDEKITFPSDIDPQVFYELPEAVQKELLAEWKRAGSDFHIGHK

The compounds below were run against DNA polymerase iota (Homo sapiens) (UniProt Q9UNA4) (assay: qHTS for Inhibitors of Polymerase Iota). Conditions: Pol iota fluorescent replication assay, 10 min; series mostly up to 115 µM; activity, negative = inhibition: at the top concentration.
Procedure, shortened: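 Pol iota at 10 nM preincubated 15 min with compounds at room temperature; reaction started with fluorescent substrate, 50 nM final. Fluorescence read kinetically at 0 and 10 min; buffer-only wells as negative control.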
Potency is read from the fitted curve at half-maximal effect.

Q: Which Potency does the source give for `COc1cccc(NC(=O)CCN2CCN(c3ccccc3)CC2)c1` here?
A: The Potency was inconclusive: 79.4 µM [inhibitor, partial curve, poor fit].

Q: `CCc1ccccc1OCC(=O)Nc1cccc(S(=O)(=O)NCc2ccco2)c1` was tested. Which Potency did it give?
A: The Potency was inconclusive: 56.2 µM [inhibitor, partial curve, poor fit].

Q: `Cc1ccc(CCNC(=O)c2c[nH]c3ccc(S(=O)(=O)Nc4ccc(C)cc4C)cc3c2=O)cc1` was tested. Which Potency did it give?
A: Its Potency is inconclusive: 89.1 µM [inhibitor, partial curve, poor fit].

Q: `CC(C)=CCC/C(C)=C/COc1c2ccoc2cc2oc(=O)ccc12` was tested. Which “activity, negative = inhibition” value did it give?
A: Its value is inactive: -26.2%.

Q: Which “activity, negative = inhibition” value does the source give for `Cc1ccc(NC(=O)CSc2ccc(-c3ccco3)nn2)c(C)c1` here?
A: Its value is inactive: 32.9%.

Q: `CCOc1ccc(C2C(C(=O)c3ccco3)=C(O)C(=O)N2CCCn2ccnc2)cc1` (stereo unspecified) was tested. Which Potency did it give?
A: The Potency was inconclusive: 25.1 µM [inhibitor, partial curve].

Q: How did the Potency turn out when `Cc1ccc(S(=O)(=O)N2CCOCC2)cc1NC(=O)COC(=O)/C=C/c1ccco1` was run?
A: The Potency was inconclusive: 56.2 µM [inhibitor, partial curve, poor fit].

Q: Which “activity, negative = inhibition” value does the source give for `O=[N+]([O-])c1ccc(Nc2nc(NCCN3CCOCC3)nc(Nc3ccc(Cl)cc3)n2)cc1` here?
A: Its value is inactive: 2.14%.

Q: With `Cc1ccc(NC(=O)Cn2c(=O)c3ccccc3n3nncc23)cc1` as the compound, how does the “activity, negative = inhibition” value read?
A: Its value is inactive: 13.5%.

Q: Which Potency does the source give for `CCSc1oc(-c2ccco2)nc1S(=O)(=O)c1ccc(Br)cc1` here?
A: The Potency was inconclusive: 79.4 µM [inhibitor, single point].

Q: For `CC1(C)CC(=O)C(C=Nc2ccncc2)=C(O)C1`, which Potency is on record?
A: Its Potency is inconclusive: 31.6 µM [inhibitor, partial curve, poor fit].

Q: `COc1cc(NC(=O)c2cc3c(s2)-c2ccccc2OC3)cc(OC)c1OC` was tested. Which “activity, negative = inhibition” value did it give?
A: Its value is inactive: 10.4%.

Q: Which Potency does the source give for `Cc1ccc2nc(-c3ccc(O)cc3)c(Nc3ccc(Cl)cc3)n2c1` here?
A: Its Potency is inconclusive: 89.1 µM [inhibitor, partial curve, poor fit].

Q: With `Cc1ccccc1N1CCN(Cc2c[nH]c3ccccc23)CC1` as the compound, how does the Potency read?
A: The Potency was inconclusive: 100 µM [inhibitor, partial curve, poor fit].

Q: With `O=c1c2ccccc2oc2ccc(-c3ccoc3)cc12` as the compound, how does the Potency read?
A: Its Potency is active: 14.1 µM.

Q: Which Potency does the source give for `COc1cc(NS(=O)(=O)c2cc3c(cc2C)N(C)CCO3)cc(OC)c1OC` here?
A: Its Potency is inconclusive: 89.1 µM [inhibitor, single point].

Q: With `Cc1cccc(N/N=C/c2ccc(O)c(O)c2O)c1` as the compound, how does the Potency read?
A: Its Potency is inconclusive: 28.2 µM [inhibitor, full curve, poor fit].

Q: Which Potency does the source give for `Cn1c(=O)c2c(nc(Br)n2Cc2nnc(N)s2)n(C)c1=O` here?
A: The Potency was inconclusive: 100 µM [inhibitor, partial curve, poor fit].

Q: `CSS(=O)(=O)c1cccc2cccnc12` was tested. Which “activity, negative = inhibition” value did it give?
A: Its value is inactive: 26.5%.

Q: How did the Potency turn out when `C=CCn1c(SCC(=O)c2ccc(O)c(O)c2)nnc1-c1cccc(Cl)c1` was run?
A: The Potency was inconclusive: 56.2 µM [inhibitor, partial curve, poor fit].

Q: For `CCc1cccc(NC(=O)CCS(=O)(=O)c2cccc3nonc23)c1`, which Potency is on record?
A: Its Potency is inconclusive: 2.82 µM [inhibitor, partial curve, poor fit].

Q: For `COc1cccc(CNCc2ccc(C(=O)O)cc2)c1OC`, which Potency is on record?
A: Its Potency is inconclusive: 89.1 µM [inhibitor, single point].

Q: `COCCCNS(=O)(=O)c1ccccc1` was tested. Which Potency did it give?
A: The Potency was inconclusive: 35.5 µM [inhibitor, single point].

Q: For `COc1cc(NC(=O)COC(=O)c2ccc(C)c(S(=O)(=O)N3CCCCC3)c2)c(C)cc1[N+](=O)[O-]`, which Potency is on record?
A: Its Potency is inconclusive: 79.4 µM [inhibitor, single point].

Q: How did the Potency turn out when `CCc1ccc(NC(=O)Cn2nnc(C(=O)NCc3cccs3)c2N)cc1` was run?
A: Its Potency is inconclusive: 100 µM [inhibitor, partial curve, poor fit].

Q: Which Potency does the source give for `Cc1cc2cc(CNC(=O)c3ccc(S(=O)(=O)N4CCOCC4)cc3)ccc2n1C` here?
A: The Potency was inconclusive: 7.94 µM [inhibitor, full curve, poor fit].

Q: How did the Potency turn out when `Cc1ccc2c(C)nc(Nc3nc(CSc4nc5ccccc5[nH]4)cc(=O)[nH]3)nc2c1` was run?
A: The Potency was inconclusive: 89.1 µM [inhibitor, partial curve].

Q: With `COc1cc(/C=N/N=C2/NC(=O)C(Cc3ccc(F)cc3)S2)ccc1O` (stereo unspecified) as the compound, how does the Potency read?
A: Its Potency is inconclusive: 14.1 µM [inhibitor, partial curve, poor fit].

Q: With `COc1ccc(CNCCS(=O)(=O)NCc2ccccc2)cc1` as the compound, how does the Potency read?
A: Its Potency is inconclusive: 35.5 µM [inhibitor, single point].

Q: With `CCOC(=O)c1ccc(NC(=O)CCn2c(=O)c3cccn3c3cccnc32)cc1` as the compound, how does the “activity, negative = inhibition” value read?
A: The value was inactive: -15.8%.

Q: Which Potency does the source give for `O=C(C[n+]1ccccc1Cl)c1ccc2c(c1)CCCC2` here?
A: The Potency was inconclusive: 89.1 µM [inhibitor, partial curve, poor fit].

Q: Which Potency does the source give for `COc1ccc(NC(=O)c2ccc3c(SCC(=O)O)c4c(nc3c2)CCCC4)c(OC)c1` here?
A: Its Potency is active: 79.4 µM.

Q: Which Potency does the source give for `COc1ccc(OC)c2sc(NC(=O)c3cccc(N4C(=O)CCC4=O)c3)nc12` here?
A: The Potency was active: 28.2 µM.

Q: `CCCOc1ccc(CC(=O)NCc2ccco2)cc1OC` was tested. Which Potency did it give?
A: The Potency was inconclusive: 20 µM [inhibitor, partial curve, poor fit].

Q: Which Potency does the source give for `CC(=O)CSc1nnc(CN2C(=O)CSc3ccc(C(F)(F)F)cc32)n1C` here?
A: The Potency was inconclusive: 20 µM [inhibitor, partial curve, poor fit].

Q: With `O=C(Cc1ccccc1)n1nc(-c2ccccc2)nc1NCc1ccco1` as the compound, how does the Potency read?
A: Its Potency is inconclusive: 1 µM [inhibitor, full curve, poor fit].

Q: `O=C(OCCCN1CCCC1)C1(c2ccccc2)CCCC1` was tested. Which Potency did it give?
A: Its Potency is inconclusive: 11.2 µM [inhibitor, partial curve].

Q: `COc1ccc(OC)c2sc(N(CCN(C)C)C(=O)/C=C/c3cccs3)nc12` was tested. Which Potency did it give?
A: The Potency was inconclusive: 31.6 µM [inhibitor, single point].

Q: For `O=C(CSc1ncnc2sc3c(c12)CCCCC3)NCc1ccco1`, which Potency is on record?
A: Its Potency is inconclusive: 28.2 µM [inhibitor, full curve, poor fit].

Q: `O=C(Nc1ccc2c(c1)C(=O)NC2=O)c1cccc(Cl)c1` was tested. Which Potency did it give?
A: The Potency was inconclusive: 89.1 µM [inhibitor, single point].

Q: `CCN(C(=O)COC(=O)c1ccc2[nH]c3c(c2c1)CCCC3)C1CCS(=O)(=O)C1` (stereo unspecified) was tested. Which “activity, negative = inhibition” value did it give?
A: The value was inactive: 101%.
